Measured values published in PubChem BioAssay AID651640 (Broad Institute, 2012).
Hit rate of the full screen: of about 350,000 compounds, about 6,000 (1.7%) were called active. Inconclusive means that the source gave no clear call. Such entries were picked first, then a sample of the others. Cut-off read from the data, not from the text of the source: active = CPE inhibition above about 20% (passing the limit was not always enough); inconclusive = no clear call, values can overlap the other calls; tested in BHK-21 cells. Where a structure was tested more than once in an assay, its records may differ in their call.

Assay: protection of cells from dengue 2 killing – plate reader, single concentration, primary screen (AID 651640);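 note: 0% = median of neutral control wells and 100% = median of positive control wells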
Settings: DENV2-infected cells, cytopathic effect rescue, at 9.99 µM, hits give high values
For `O=C(OCc1c(F)cccc1Cl)c1cc([N+](=O)[O-])ccc1N1CCOCC1`, the CPE inhibition was active: 67.8%.
In the case of `CCCNC(=O)N1[C@H](CO)[C@H](c2ccccc2)[C@@H]1CNC(=O)C1CCCCC1`, the CPE inhibition was inactive: -0.174%.
For `O=C(c1ccc2ccccc2c1)C1CCCN(C(=O)CCn2cnnn2)C1` (configuration not stated), the CPE inhibition was inconclusive: 24.9%.
In the case of `O=C(COC(=O)C1CC1)NCCc1ccccc1`, the CPE inhibition was inconclusive: 33.2%.
In the case of `Cc1cccc(NC(=O)CSc2nnnn2C2CCCC2)c1`, the CPE inhibition was inconclusive: 23.3%.
With `CN(C)CCNC(=O)c1csc(Nc2cccc3ccccc23)n1` the CPE inhibition was inactive: 1.75%.
In the case of `CN(CC(=O)Nc1ccc(OC(F)(F)F)cc1)S(=O)(=O)c1cnc[nH]1`, the CPE inhibition was inconclusive: 20.1%.
In the case of `COc1ccccc1NC(=O)N[C@@H]1CC[C@@H](CCNC(=O)Cc2ccccn2)O[C@H]1CO`, the CPE inhibition was inconclusive: 36.4%.
With `CCCC(=O)Nc1ccc2c(c1)C(=O)N(C)C[C@@H](OC)[C@@H](C)CN(C(=O)c1cccnc1)[C@H](C)CO2` the CPE inhibition was inconclusive: 60.5%.
With `Nc1cc(Nc2ccccc2)ccn1` the CPE inhibition was inconclusive: 21%.
In the case of `Cc1cc(C)cc(N(C(=O)CNC(=O)c2ccco2)C(C(=O)NC2CCCC2)c2ccncc2)c1` (configuration not stated), the CPE inhibition was inconclusive: 32%.
In the case of `CCCNC(=O)N1C[C@@H]2N[C@H](C1)C2c1ccc(-c2ccc(OC)cc2)cc1` (some centres not stated), the CPE inhibition was active: 32.3%.
With `C#CCNC(=O)C[C@@H]1C[C@@]2(C(=O)OC)CCCCC=C2N(Cc2ccccc2)C1=O` the CPE inhibition was inconclusive: 76.8%.
In the case of `Cc1noc(C)c1NC(=O)Nc1ccc2c(c1)C(=O)N([C@H](C)CO)C[C@@H](C)[C@H](CN(C)C)O2`, the CPE inhibition was inconclusive: 33.4%.
In the case of `CCNC(=O)C1(C)CCN(C(=O)c2c(-c3ccccc3)noc2C)C1` (configuration not stated), the CPE inhibition was inconclusive: 58.6%.
For `CN1C2CCC1/C(=C/c1cccn1C)C(=O)/C2=C\c1cccn1C`, the CPE inhibition was inconclusive: 58.1%.
With `COc1cc(CCC(=O)OCC(=O)Nc2ccc(C)cc2Br)cc(OC)c1OC` the CPE inhibition was inactive: -2.64%.
In the case of `CC(=O)[C@@]1(O)Cc2c(O)c3c(c(O)c2[C@H](O[C@H]2C[C@H](N)[C@H](O)[C@H](C)O2)C1)C(=O)c1ccccc1C3=O`, the CPE inhibition was inactive: -12.5%.
In the case of `COc1cccc(-c2cnc3c(c2)C(=O)N([C@@H](C)CO)C[C@H](C)[C@H](CN(C)CC2CCOCC2)O3)c1`, the CPE inhibition was inconclusive: 10.2%.
For `COc1ccc(NC(=O)Nc2ccc3c(c2)C(=O)N([C@@H](C)CO)C[C@H](C)[C@H](CN(C)C(=O)C2CCCCC2)OCCCC[C@H](C)O3)cc1`, the CPE inhibition was inactive: 6.06%.
In the case of `CCOc1ccc(-n2c(=O)c3ccccc3c3ccccc3c2=O)cc1`, the CPE inhibition was inconclusive: 22.7%.
In the case of `COc1c2c(cc3oc(CO[C@@H]4O[C@H](CO)[C@@H](O)[C@H](O)[C@H]4O)cc(=O)c13)O[C@H](C(C)(C)O)C2`, the CPE inhibition was active: 23.6%.
With `C[C@H](CO)N1C[C@H](C)[C@H](CN(C)CC2CCCCC2)Oc2c(NC(=O)NC3CCCCC3)cccc2C1=O` the CPE inhibition was inactive: 3.25%.
For `COc1cc(C(=O)ON=C2C=C(C)C(=O)C(C)=C2)cc(OC)c1OC`, the CPE inhibition was inconclusive: 22.5%.
In the case of `CCCNC(=O)N(C)C[C@@H]1Oc2cc(C#Cc3ccccn3)ccc2S(=O)(=O)N([C@@H](C)CO)C[C@H]1C`, the CPE inhibition was inconclusive: 30.4%.
For `Cc1ccc(NC(=O)c2ccc(OCc3c(C)noc3C)cc2)cc1`, the CPE inhibition was inconclusive: 29.1%.
With `CC(=O)N1[C@@H]2c3ccc(-c4ccccc4)c(=O)n3C[C@@H]2[C@@H](CO)[C@@H]1C(=O)NCc1ccccc1Cl` the CPE inhibition was inconclusive: 66.3%.
With `Cc1cc(=O)oc2cc(OCCSCCN3CCCC3)ccc12` the CPE inhibition was active: 36.5%.
For `O=C(CN1CCN(S(=O)(=O)c2ccccc2)CC1)N1CCc2ccccc21`, the CPE inhibition was inconclusive: 27.2%.
With `COc1ccc(CC(N)c2csc(NC(=O)Nc3ccccc3C(C)C)n2)cc1` (configuration not stated) the CPE inhibition was inconclusive: 25.7%.
With `CC(C)NC(=O)N1[C@@H]2Cn3c(cccc3=O)[C@H]1[C@@H](C(=O)N1CCC(Cc3ccccc3)CC1)[C@@H]2CO` the CPE inhibition was inconclusive: 20.7%.
For `COCC(=O)NC[C@@H]1[C@@H](c2ccc(-c3ccccc3)cc2)[C@H](CO)N1C(C)=O`, the CPE inhibition was active: 40.6%.
For `CO[C@H]1CN(C)C(=O)c2cc(NC(=O)c3ccccc3F)ccc2OC[C@H](C)N(CC2CCOCC2)C[C@H]1C`, the CPE inhibition was active: 80.9%.
With `CC(C)C#Cc1cnc2c(c1)C(=O)N([C@H](C)CO)C[C@H](C)[C@H](CN(C)Cc1cccc(F)c1)O2` the CPE inhibition was inactive: -6.18%.
For `CCCNC(=O)N1CC2(CN(C(=O)c3ccncc3)C2)c2c([nH]c3cc(OC)ccc23)[C@H]1CO`, the CPE inhibition was inconclusive: 35.6%.
In the case of `O=C(Nc1ccc(F)cc1)N[C@H]1CC[C@H](CCNS(=O)(=O)c2ccccc2F)O[C@H]1CO`, the CPE inhibition was inactive: -3.31%.
For `O=C(NC[C@H]1N[C@H](CO)[C@@H]1c1ccc(C2=CCCCC2)cc1)c1ccc(F)cc1`, the CPE inhibition was active: 44.1%.
With `O=C(Nc1cccc(NC(=O)c2ccco2)c1)c1cccc(Br)c1` the CPE inhibition was inconclusive: 37.8%.
With `OC[C@@H]1[C@@H](c2ccc(C3=CCCC3)cc2)[C@@H]2CN(CCC(F)(F)F)CCCCN12` the CPE inhibition was inactive: -0.305%.
With `Cc1ccc(NC(=O)c2ccc3c(c2)OCO3)cc1Cl` the CPE inhibition was active: 21.8%.
With `O=C(NCCc1ccccc1)C1CCCN(S(=O)(=O)c2cccs2)C1` (configuration not stated) the CPE inhibition was inconclusive: 27.4%.
With `O=C(C[C@@H]1CC[C@@H](NC(=O)Nc2ccc3c(c2)OCO3)[C@@H](CO)O1)NCc1ccc2c(c1)OCO2` the CPE inhibition was active: 29.1%.
With `CCS(=O)(=O)n1nc(-c2ccccc2)cc1N` the CPE inhibition was inconclusive: 27.3%.
For `CCS(=O)(=O)Nc1ccc2c(c1)C(=O)N(C)C[C@@H](OC)[C@@H](C)CN[C@H](C)CO2`, the CPE inhibition was active: 55.4%.
In the case of `COc1ccc(S(=O)(=O)Nc2ccc3c(c2)C(=O)N([C@H](C)CO)C[C@H](C)[C@@H](CN(C)Cc2ccc4c(c2)OCO4)OCCCC[C@H](C)O3)cc1`, the CPE inhibition was active: 29.9%.
With `N#Cc1ccc(S(=O)(=O)NC2CC2)cc1` the CPE inhibition was inconclusive: 47.5%.
For `COc1cccc(S(=O)(=O)N[C@H]2C=C[C@H](CC(=O)NCc3ccncc3)O[C@H]2CO)c1`, the CPE inhibition was active: 28.3%.
